Measured values reported in article PMC2705800, “Nucleocytoplasmic Shuttling of the TACC Protein Mia1p/Alp7p Is Required for Remodeling of Microtubule Arrays during the Cell Cycle” (PLoS ONE, 2009).
Numbering of substitutions follows the chain as printed. These are yes or no findings as the source states them, for the method shown. Binding seen in cells or lysates may run through a third protein. Some results given as binding are weak or reduced against the parent protein; the word gives no strength. Sequences can lack the tags named with a protein.

How the values were obtained:
[1] = target: T1, MBP-Mia1p-MutNES4 (S. pombe, UniProt Q9URY2 1-474, L461A (AVAAMDQANA; Leu/Ile residues 461, 463, 468 and 470) | I463A (AVAAMDQANA; …); assay: pull-down; as a1, but the Alp14p-myc containing cellular extract was prepared from wild type cells; data not shown; only the target purified
T1 construct: Cloned into the pAD2a vector (MBP upstream of the multiple cloning site), as m1; also called Mia1-MutNES4; NES mutant version of Mia1p; source: E. coli BL21 (DE3) carrying the pG-KJE8 chaperone plasmid; not shown: MBP, N-terminal, kept
T1 sequence (looked up): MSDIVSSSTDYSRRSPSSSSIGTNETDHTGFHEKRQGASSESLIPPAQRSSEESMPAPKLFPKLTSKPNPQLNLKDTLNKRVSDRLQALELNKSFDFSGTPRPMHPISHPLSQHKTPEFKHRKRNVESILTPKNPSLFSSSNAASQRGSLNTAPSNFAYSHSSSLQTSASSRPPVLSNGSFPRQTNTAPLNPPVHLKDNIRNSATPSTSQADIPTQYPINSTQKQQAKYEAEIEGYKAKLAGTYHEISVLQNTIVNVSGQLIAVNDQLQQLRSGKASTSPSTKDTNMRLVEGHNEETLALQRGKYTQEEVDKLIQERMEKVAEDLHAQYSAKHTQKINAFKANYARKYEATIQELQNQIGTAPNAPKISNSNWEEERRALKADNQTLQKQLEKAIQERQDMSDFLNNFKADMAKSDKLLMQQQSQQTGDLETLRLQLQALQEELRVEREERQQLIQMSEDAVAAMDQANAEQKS

[2] = target: T2, MBP-Mia1p (S. pombe) (UniProt Q9URY2); assay: as above
T2 sequence: T1 sequence (looked up) with A461L, A463I, A468L, A470L

[3] = target: T2, MBP-Mia1p (S. pombe); assay: pull-down; MBP fusion held on amylose resin, incubated 1 hour at 4°C with soluble total lysate of Alp14p-13myc expressing mia1Δ S. pombe cells; Buffer A (20 mM Tris-HCl pH 7.4, 400 mM NaCl, 1 mM EDTA, 10 mM β-mercaptoethanol); washed 3 times; Alp14p-myc detected with anti-myc antibody, MBP proteins by Coomassie; only the target purified

Measured: binding

B1: Alp14p-13myc (natural protein, S. pombe, UniProt O94534 1-809, looked up)
chain: MSQDQEEDYSKLPLESRIVHKVWKVRLSAYEECSKSFSLSADGSDNCFELWNNQSELWKSVLTDSNVAAQEAGTAAFVAYCRFSDPSHLLKAREISVLSISEKCLTSPRAGTRENALEALMLLVEADSAAPVIESIIPSLSARSPKVIASNVAAIASLVEQFGAKVIPSKMIIPHISNLFGHADKNVRKEASRLTVNIYRWTGDPLKDLLFKDLRPVQTKELESLFAELPTEPPKQTRFLKSQQPTSEPNVETQVEEQPALENEESEPEPSDDQFDLVEEVDVLPNVDPNLETLMASSKWKDRKEALDKLLPVLSQPKIKDNDFFNLVAILTKSVSKDANIMVVINAAHCIQAMAKGLRSNFSKYASTSINALLERSKEKKANVIESLSSAMDAVLATSSLDDLAELIASFAGNKNPQIKSSCFSLFSRSFSNMTSLPSKFTVDTCAKACVPGVSDTFEPVRSAAAEALGVLMKLVGERAINQYLSPLDDIRKSKIRSFYETATVKAKAPTKKSKVKPSKQEESKVVVPSNAKAVKKSVVPSSPVVPSPRKATNKSLSMDVSKGNAFENGPLLPRPTTRPVSRGLSRGTSSSLQQKVKASTPLNSGALNETVQNLKNMELDDPAPQPAKHSRVDRYEHPKVLEDNDSTISSLESLKRENEELREQLKVEHEENISMQKQLSELKGELNTLRSARKASPIGDRKPAFMRRANTDFLELSTSPSFQRSVREFEPTRPKLYSSIDVNQRSPLASAKTNGNFTFHAELPRSPFSSRANNINPDWTKAIDLAAKLKQKITEMKQTDQRHQGLIH
notes: Alp14p, TOG protein of Schizosaccharomyces pombe, partner of Mia1p/Alp7p; also called Alp14p-myc; Alp14p/TOG; source: S. pombe mia1Δ cells expressing Alp14p-13myc, total cell lysate
binds: all assays above
